{
  "source": "patent US12173313B2",
  "about": "“Assembly of functionally integrated human forebrain spheroids and methods of use thereof” (The Board of Trustees of the Leland Stanford Junior …, priority 2017, dated 2024)",
  "key": {"[1]": {"system": "Dlxi1/2b::eGFP+ cells in fused hSS-hCS", "test": "Live imaging of interneuron migration in fused hSS-hCS (control)", "type": "cell-based, human", "details": "5 μM, P<0.001", "procedure": "(§1) Live imaging and analysis of Dlxi1/2b::eGFP+ cell migration. The migration of Dlxi1/2b::eGFP+ cells was imaged for 8-12 hrs under environmentally controlled conditions (37° C., 5% CO2) in intact, fused hSS-hCS using a confocal microscope with a motorized stage (Leica SP8). Fused hSS-hCS were transferred to a well of a 96-well plate (glass-bottom plates, Corning) in 200 μl of NM. Spheroids were incubated in the environmentally controlled chamber for 30-60 min prior to imaging. During a given recording session, up to 8 fused hSS-hCS were imaged at a depth of 50-150 μm depth and a rate of 15-20 min/frame. For pharmacological manipulation, cells were imaged for 12 hrs to record a baseline. […] The field of view was readjusted to capture the previous region of interest and cells in fused hSS-hCS were imaged for an additional 12 hrs. […] For quantification of migration of Dlxi1/2b::eGFP+ cells after plating on coverslips, intact hSS were plated on Poly-ornithine/laminin (Sigma) coated glass coverslips (15 mm; Werner). […] To estimate the length of individual saltations, Dlxi1/2b::eGFP cells displaying a swelling of the soma were identified, and distance (in μm) to the new position of the soma following nucleokinesis was recorded manually. […] Path directness was calculated as the E/A ratio. […]"}, "[2]": {"system": "TS Dlxi1/2b::eGFP+ cells in fused hSS-hCS", "test": "Live imaging of interneuron migration in fused hSS-hCS from Timothy syndrome", "type": "cell-based, human", "details": "5 μM, P<0.001", "procedure": "as §1"}},
  "note": "At least one compound was matched to its structure with a doubt left.",
  "data": [
    {"smiles": "COCCOC(=O)C1=C(C)NC(C)=C(C(=O)OC(C)C)C1c1cccc([N+](=O)[O-])c1", "note": "(stereo not shown) [nimodipine]", "values": [
      {"measurement": "saltation length", "setting": "[1]", "value": "significantly reduced"},
      {"measurement": "speed when mobile", "setting": "[1]", "value": "significantly reduced"},
      {"measurement": "deficit in saltation length", "setting": "[2]", "value": "rescued"},
      {"measurement": "deficit in speed when mobile", "setting": "[2]", "value": "rescued"}
    ]}
  ]
}
